The other results are listed elsewhere or left out.
What was measured:
Assay in all cases: log2 fold change, soluble protein after heating vs DMSO (PISA); higher = thermal stabilisation; K562 lysate, 10 uM; active = over 0.2 and 3.5 SD of the protein, either way, in both replicates (recomputed)
[1] = compound: CN1CC[C@H](c2c(O)cc(O)c3c(=O)cc(-c4ccccc4Cl)oc23)[C@H](O)C1 [alvocidib]
Method in brief: (§1)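 Quantification was by TMTpro 16plex LC-MS/MS with equalised channel sums, applied to the supernatant after 21,000xg for 90 min. Samples were crude K562 extract at 1 mg/mL protein in PBS pH 7.4 with 1 mM MgCl2, treated with 10 μM compound for 30 min, heated for 3 min across 48°C-58°C, pooled and brought to 0.5% NP-40 at 4°C. Values are log-two fold changes in thermal stability relative to solvent controls, from duplicates.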

By UniProt entry, the sequences of proteins in these tests, tags left out. Where a name states a change or a piece, a line headed by the entry shows the natural chain unless it says otherwise.
UniProt O00161: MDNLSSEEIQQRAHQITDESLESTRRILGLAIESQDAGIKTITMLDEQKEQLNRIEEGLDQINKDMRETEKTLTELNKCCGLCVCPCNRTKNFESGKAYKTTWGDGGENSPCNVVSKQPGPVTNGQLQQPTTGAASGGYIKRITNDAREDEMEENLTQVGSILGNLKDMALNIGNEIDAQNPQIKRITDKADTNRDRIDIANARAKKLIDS
UniProt Q9BT81: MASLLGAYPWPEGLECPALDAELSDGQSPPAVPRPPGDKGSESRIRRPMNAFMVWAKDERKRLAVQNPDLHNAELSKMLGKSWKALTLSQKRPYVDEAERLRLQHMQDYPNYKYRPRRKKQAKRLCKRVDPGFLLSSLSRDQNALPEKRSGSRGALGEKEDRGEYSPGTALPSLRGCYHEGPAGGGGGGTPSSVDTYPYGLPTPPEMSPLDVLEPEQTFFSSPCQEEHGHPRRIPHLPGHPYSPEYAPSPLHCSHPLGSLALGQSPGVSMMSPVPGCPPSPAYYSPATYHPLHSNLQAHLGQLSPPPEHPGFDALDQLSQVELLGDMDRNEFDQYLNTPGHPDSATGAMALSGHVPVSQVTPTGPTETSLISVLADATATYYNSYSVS
UniProt O60271: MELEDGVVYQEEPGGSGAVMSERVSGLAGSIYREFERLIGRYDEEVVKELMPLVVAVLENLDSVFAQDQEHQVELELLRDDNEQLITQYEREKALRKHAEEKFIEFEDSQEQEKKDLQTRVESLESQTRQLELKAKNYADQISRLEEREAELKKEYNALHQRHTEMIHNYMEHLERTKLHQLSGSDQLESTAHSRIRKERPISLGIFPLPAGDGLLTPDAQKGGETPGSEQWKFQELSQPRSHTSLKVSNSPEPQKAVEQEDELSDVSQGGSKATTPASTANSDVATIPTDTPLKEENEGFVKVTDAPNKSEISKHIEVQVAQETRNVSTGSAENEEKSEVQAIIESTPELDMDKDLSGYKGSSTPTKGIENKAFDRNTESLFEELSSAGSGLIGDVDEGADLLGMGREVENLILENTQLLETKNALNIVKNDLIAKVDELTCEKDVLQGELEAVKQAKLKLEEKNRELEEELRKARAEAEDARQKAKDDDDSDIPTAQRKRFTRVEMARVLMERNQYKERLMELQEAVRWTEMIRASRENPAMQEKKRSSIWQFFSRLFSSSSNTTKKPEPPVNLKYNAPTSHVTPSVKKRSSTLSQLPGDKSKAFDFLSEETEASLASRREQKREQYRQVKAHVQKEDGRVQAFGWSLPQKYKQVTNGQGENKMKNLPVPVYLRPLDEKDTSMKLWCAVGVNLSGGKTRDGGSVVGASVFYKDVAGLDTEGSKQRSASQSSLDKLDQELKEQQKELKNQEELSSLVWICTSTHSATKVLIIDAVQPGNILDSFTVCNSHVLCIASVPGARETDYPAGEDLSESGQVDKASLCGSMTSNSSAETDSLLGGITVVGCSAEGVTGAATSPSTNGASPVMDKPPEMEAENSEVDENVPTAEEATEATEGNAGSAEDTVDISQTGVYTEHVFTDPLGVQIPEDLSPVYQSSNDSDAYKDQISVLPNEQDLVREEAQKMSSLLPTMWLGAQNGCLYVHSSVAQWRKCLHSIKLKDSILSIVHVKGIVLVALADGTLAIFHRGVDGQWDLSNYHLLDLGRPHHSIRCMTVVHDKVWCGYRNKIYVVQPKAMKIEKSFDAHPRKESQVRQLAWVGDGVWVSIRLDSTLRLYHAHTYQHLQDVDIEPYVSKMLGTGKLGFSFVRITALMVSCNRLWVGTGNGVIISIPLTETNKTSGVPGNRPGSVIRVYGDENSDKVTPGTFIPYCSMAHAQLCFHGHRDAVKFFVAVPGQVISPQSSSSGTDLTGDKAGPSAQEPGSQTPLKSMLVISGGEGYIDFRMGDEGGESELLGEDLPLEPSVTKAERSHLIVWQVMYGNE

[2] = compound: CN1CCc2c(c3ccccc3n2Cc2ccc(C(=O)NO)cc2)C1 [Tubastatin A]
Method in brief: as §1

[3] = compound: CNC(=O)C1=CC=CC=C1NC2=NC(=NC=C2Cl)NC3=C(C=C(C=C3)N4CCOCC4)OC
Method in brief: as §1

[4] = compound: CNC(=O)c1ccc(Nc2ncc(C(F)(F)F)c(NCc3nccnc3N(C)S(C)(=O)=O)n2)cc1 [defactinib]
Method in brief: as §1

[5] = compound: COC(=O)N[C@@H](C)CNc1nccc(-c2cn(C(C)C)nc2-c2cc(Cl)cc(NS(C)(=O)=O)c2F)n1 [encorafenib]
Method in brief: as §1

[6] = compound: COC(=O)[C@H](CCSC)NC(=O)C1=C(C=C(C=C1)NC[C@H](CS)N)C2=CC=CC=C2
Method in brief: as §1

[7] = compound: COc1cc(Nc2ncc3c(n2)-c2ccc(Cl)cc2C(c2c(F)cccc2OC)=NC3)ccc1C(=O)O [alisertib]
Method in brief: as §1

[8] = compound: COc1cc2nc(-c3cc(F)ccc3O)nc(N[C@@H]3CNC[C@H]3C(C)(C)O)c2cc1OC
Method in brief: as §1

[9] = compound: COc1cc2ncnc(Nc3ccc(F)c(Cl)c3)c2cc1OCCCN1CCOCC1 [gefitinib]
Method in brief: as §1

Measured: log2 fold change

SNAP23 isoform 2 (UniProt O00161)
inactive: [1] -0.323 | [2] -0.202 | [3] 0.029 | [4] -0.118 | [5] -0.295 | [6] 0.071 | [7] -0.15 | [8] -0.152 | [9] 0.016

SOX7 isoform 2 (UniProt Q9BT81)
inactive: [1] 0.048 | [2] -0.259 | [3] 0.149 | [4] 0.102 | [7] -0.051 | [9] -0.082

SPAG9 isoform 4 (UniProt O60271)
inactive: [1] -0.176 | [2] 0.004 | [4] 0.039 | [5] 0.045 | [6] 0.043

SMIM26, A0A096LP01
inactive: [1] 0.009 | [2] -0.011 | [7] -0.081 | [9] 0.101
